Some of the results follow.

Protein sequences, listed by entry. Tags and fused reporters are not part of them. Lines headed by an entry give the natural chain unless they say otherwise; changes in a name come on top.
UniProt Q8N8A2: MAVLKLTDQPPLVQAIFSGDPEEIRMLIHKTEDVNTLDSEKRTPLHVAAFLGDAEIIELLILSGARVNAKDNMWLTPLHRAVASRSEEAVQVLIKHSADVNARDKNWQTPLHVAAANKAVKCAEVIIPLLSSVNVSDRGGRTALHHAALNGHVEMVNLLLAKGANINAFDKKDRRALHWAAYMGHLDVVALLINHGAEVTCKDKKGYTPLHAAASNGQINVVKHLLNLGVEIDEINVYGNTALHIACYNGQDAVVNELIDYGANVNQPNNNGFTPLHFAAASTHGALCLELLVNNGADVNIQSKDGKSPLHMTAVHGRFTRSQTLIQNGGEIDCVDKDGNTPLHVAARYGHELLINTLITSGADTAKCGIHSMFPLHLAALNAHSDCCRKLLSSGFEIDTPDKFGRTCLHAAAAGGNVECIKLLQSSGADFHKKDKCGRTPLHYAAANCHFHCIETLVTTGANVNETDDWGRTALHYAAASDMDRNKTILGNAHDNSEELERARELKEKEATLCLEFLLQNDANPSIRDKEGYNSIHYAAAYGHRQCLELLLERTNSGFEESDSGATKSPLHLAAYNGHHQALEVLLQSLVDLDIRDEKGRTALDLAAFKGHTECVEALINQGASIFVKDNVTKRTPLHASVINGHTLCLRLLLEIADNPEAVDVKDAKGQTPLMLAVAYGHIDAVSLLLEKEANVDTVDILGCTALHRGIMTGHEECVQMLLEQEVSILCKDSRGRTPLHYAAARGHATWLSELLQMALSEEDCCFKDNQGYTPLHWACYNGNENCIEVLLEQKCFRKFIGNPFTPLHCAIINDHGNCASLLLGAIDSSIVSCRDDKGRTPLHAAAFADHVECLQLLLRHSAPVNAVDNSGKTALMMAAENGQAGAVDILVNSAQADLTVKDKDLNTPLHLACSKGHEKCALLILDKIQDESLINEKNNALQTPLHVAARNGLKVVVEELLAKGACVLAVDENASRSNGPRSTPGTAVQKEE
UniProt Q9BS18, whole entry, looked up: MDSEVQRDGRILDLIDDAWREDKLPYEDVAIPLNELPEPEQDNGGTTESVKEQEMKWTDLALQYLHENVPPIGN
UniProt Q68DC2: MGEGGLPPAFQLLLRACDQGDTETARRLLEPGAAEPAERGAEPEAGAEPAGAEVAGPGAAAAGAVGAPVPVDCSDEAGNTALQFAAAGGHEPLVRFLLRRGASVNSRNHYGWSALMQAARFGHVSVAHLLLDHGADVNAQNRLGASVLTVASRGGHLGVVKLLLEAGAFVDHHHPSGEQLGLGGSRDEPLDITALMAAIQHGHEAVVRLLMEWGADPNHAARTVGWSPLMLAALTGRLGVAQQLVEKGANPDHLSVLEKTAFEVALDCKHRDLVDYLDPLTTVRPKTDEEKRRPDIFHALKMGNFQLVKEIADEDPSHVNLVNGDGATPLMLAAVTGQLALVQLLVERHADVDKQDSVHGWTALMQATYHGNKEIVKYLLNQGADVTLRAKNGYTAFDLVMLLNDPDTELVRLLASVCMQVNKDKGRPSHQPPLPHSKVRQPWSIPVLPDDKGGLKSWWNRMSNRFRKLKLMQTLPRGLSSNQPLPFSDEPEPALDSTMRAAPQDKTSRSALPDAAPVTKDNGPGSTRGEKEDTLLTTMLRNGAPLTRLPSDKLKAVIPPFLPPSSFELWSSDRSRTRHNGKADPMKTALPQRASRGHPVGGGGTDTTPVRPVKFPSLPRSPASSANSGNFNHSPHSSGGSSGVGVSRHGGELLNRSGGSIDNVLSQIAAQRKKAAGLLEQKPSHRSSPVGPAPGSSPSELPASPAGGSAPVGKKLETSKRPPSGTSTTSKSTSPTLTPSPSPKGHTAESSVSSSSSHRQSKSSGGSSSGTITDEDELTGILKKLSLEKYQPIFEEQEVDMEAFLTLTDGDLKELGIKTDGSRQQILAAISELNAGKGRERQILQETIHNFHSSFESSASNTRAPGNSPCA
UniProt Q8IWZ3: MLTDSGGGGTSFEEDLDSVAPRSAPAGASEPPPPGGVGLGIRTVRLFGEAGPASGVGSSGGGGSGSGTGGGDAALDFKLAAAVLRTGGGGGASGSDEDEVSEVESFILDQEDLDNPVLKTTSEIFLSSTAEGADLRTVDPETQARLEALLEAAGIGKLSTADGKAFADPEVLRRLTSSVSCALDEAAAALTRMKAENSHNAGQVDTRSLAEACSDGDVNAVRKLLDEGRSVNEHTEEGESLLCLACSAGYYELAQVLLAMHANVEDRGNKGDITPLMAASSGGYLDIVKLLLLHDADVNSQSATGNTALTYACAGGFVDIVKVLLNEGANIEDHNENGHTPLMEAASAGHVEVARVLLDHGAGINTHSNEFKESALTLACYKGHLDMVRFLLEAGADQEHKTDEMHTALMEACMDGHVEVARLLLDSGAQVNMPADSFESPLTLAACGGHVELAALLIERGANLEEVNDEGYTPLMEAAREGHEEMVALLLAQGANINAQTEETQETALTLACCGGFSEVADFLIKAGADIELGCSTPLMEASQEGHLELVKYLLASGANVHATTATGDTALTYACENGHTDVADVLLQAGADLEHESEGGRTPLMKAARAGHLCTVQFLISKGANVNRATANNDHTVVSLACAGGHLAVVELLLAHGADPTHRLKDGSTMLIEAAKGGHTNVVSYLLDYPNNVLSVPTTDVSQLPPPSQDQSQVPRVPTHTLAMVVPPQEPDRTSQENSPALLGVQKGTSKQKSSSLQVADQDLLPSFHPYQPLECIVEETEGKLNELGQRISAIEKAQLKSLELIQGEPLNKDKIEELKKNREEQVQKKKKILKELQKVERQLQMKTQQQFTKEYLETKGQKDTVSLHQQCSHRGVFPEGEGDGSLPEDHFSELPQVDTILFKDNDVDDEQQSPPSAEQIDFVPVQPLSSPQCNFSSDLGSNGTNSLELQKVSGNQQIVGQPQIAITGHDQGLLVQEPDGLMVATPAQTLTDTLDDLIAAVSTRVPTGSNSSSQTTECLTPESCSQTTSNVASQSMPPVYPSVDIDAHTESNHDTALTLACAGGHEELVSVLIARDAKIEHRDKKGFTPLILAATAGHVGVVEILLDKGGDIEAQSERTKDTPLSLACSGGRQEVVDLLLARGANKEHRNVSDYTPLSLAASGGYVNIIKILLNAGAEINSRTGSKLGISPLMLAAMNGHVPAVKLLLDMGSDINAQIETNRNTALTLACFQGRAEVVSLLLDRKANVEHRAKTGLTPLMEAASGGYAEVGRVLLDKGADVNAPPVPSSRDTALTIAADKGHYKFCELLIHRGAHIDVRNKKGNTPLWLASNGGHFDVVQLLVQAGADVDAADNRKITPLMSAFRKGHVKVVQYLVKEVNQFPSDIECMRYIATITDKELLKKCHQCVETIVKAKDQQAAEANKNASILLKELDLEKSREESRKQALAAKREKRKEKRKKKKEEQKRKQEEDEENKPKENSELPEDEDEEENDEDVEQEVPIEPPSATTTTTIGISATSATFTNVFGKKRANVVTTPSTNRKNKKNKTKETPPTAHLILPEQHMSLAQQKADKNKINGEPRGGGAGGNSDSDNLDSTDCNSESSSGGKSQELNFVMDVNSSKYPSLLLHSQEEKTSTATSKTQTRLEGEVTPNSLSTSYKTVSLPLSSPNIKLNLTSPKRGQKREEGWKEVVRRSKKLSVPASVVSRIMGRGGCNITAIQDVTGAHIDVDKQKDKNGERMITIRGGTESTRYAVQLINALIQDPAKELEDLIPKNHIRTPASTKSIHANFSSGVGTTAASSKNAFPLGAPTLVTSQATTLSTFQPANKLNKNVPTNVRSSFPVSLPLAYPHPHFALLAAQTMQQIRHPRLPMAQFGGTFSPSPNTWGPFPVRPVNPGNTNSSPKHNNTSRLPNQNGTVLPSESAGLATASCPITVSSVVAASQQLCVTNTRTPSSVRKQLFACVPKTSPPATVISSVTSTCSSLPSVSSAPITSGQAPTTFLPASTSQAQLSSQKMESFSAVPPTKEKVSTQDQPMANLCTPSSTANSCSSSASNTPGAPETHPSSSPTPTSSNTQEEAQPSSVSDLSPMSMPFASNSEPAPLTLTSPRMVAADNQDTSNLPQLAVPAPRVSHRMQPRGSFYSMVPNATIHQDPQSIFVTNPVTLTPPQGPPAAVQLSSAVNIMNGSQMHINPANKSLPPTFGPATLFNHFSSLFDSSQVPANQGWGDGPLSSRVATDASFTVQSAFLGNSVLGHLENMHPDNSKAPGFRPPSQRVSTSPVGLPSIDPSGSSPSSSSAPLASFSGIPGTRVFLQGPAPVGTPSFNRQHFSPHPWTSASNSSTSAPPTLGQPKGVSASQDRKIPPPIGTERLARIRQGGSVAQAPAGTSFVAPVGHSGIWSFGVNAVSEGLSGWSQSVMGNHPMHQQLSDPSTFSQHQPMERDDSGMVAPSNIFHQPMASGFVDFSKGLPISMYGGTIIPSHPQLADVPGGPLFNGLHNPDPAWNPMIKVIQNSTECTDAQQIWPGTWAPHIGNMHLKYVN
UniProt Q2TAA5: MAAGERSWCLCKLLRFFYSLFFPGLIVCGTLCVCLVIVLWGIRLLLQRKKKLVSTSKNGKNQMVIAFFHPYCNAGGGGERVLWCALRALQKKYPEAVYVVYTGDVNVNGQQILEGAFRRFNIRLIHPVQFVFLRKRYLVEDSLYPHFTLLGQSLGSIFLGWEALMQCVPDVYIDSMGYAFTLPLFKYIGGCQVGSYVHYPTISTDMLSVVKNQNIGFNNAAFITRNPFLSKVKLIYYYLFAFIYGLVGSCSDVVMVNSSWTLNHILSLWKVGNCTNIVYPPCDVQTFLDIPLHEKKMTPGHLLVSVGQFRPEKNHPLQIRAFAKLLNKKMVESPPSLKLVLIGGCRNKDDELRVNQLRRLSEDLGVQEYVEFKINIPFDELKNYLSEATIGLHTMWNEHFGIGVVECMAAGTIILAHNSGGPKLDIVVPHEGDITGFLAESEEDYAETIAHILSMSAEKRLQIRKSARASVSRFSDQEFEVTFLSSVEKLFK
UniProt O75342: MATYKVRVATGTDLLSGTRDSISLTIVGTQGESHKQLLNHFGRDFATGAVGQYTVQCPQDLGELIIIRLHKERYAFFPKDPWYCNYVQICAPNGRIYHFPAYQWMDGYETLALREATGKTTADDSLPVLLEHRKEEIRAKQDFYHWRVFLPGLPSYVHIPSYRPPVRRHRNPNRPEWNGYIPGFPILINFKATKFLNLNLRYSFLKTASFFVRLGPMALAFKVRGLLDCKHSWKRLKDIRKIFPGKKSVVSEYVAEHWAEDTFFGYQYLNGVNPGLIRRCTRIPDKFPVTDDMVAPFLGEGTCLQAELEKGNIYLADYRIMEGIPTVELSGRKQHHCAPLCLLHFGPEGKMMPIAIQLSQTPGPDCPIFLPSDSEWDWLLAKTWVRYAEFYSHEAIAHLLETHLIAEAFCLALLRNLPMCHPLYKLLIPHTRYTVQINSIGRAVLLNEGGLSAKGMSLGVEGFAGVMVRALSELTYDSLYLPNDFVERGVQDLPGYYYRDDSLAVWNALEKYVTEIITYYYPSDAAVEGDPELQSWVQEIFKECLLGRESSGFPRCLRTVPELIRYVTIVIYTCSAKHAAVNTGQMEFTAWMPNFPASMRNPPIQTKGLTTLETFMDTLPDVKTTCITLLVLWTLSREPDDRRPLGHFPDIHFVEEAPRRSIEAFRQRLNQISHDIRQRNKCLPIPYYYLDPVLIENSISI
UniProt Q5I7T1: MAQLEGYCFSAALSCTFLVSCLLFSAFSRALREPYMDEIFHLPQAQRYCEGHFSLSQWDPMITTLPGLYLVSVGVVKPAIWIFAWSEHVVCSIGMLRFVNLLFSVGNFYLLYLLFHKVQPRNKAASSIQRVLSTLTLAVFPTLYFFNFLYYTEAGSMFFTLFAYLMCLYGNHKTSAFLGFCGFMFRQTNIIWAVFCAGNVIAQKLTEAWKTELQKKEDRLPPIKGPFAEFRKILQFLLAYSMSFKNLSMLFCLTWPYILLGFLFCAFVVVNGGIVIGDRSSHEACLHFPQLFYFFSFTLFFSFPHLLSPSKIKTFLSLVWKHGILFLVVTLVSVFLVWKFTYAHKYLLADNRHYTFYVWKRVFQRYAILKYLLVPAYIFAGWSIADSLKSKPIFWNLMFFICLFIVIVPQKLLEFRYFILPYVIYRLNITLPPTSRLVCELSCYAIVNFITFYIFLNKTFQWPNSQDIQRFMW
UniProt Q9BT30: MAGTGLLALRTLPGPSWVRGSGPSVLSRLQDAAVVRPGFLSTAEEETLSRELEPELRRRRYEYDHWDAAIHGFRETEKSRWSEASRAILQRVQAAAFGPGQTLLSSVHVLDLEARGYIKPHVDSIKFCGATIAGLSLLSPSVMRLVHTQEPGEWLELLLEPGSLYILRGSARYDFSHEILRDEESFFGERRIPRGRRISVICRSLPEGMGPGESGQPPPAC
UniProt Q9NYG5, whole entry, looked up: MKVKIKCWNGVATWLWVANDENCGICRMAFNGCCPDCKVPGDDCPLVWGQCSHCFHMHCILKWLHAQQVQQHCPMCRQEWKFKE

Experimental findings from the supplement of paper PMC10849652 are described below.

Compound in one assay: NCC(=O)Nc1ccc(-n2nc(C(F)(F)F)cc2-c2ccc3c(ccc4ccccc43)c2)cc1
In words: log2 fold change, soluble protein after heating vs DMSO (PISA); higher = thermal stabilisation; K562 lysate, 10 uM; active = over 0.2 and 3.5 SD of the protein, either way, in both replicates (recomputed). A digest of the protocol: (§1)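 The values are log-two fold changes in thermal stability compared with solvent controls and come from duplicates. They were obtained by TMTpro 16plex LC-MS/MS, with channel sums equalised, on the supernatant after 21,000xg for 90 min. That supernatant came from crude K562 extract at 1 mg/mL protein treated with 10 μM compound for 30 min, heated for 3 min across 48°C-58°C, pooled and brought to 0.5% NP-40 at 4°C.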
Regarding ALDOA (UniProt H3BPS8), the log2 fold change is inactive: 0.024.

As for AMDHD2 (UniProt Q9Y303), the log2 fold change is inactive: -0.092.

For the target ANKRD44 isoform 2 (UniProt Q8N8A2), the log2 fold change is inactive: 0.127.

With ALDH9A1 (UniProt P49189), the log2 fold change was inactive: 0.217.

On to ALG12 (UniProt Q9BV10), for which the log2 fold change was inactive: 0.035.

Take ANKS3 (UniProt Q6ZW76): the log2 fold change is inactive: 0.013.

ANP32E isoform 3 (UniProt Q9BTT0): the log2 fold change is inactive: 0.135.

Take ANAPC13 (UniProt Q9BS18): the log2 fold change is inactive: -0.027.

Consider ALDH18A1 isoform 2 (UniProt P54886), for which the log2 fold change was inactive: 0.097.

Compound in a further assay: O=C(CCCCCCC(=O)Nc1ccccc1)NO [vorinostat]
The assay is described as above. A digest of the protocol: as §1
On to ALDOA (UniProt H3BPS8), for which the log2 fold change was inactive: 0.212.

For the target ANKS6 isoform 4 (UniProt Q68DC2), the log2 fold change is inactive: 0.109.

With ALPK1 (UniProt Q96QP1), the log2 fold change was inactive: 0.002.

With AKTIP isoform 2 (UniProt Q9H8T0), the log2 fold change is inactive: -0.255.

ANKRD44 isoform 2 (UniProt Q8N8A2): the log2 fold change was inactive: 0.073.

Regarding AP3S2 (UniProt P59780), the log2 fold change is inactive: 0.

As for AP1S3 isoform 4 (UniProt Q96PC3), the log2 fold change is inactive: 0.045.

For the target ANAPC15 isoform 2 (UniProt P60006), the log2 fold change is inactive: -0.285.

ANKHD1 isoform 2 (UniProt Q8IWZ3): the log2 fold change was inactive: -0.03.

With ALG11 (UniProt Q2TAA5), the log2 fold change is inactive: -0.253.

For ALG12 (UniProt Q9BV10), the log2 fold change was inactive: 0.129.

As for ANKHD1 (UniProt D6RHC4), the log2 fold change was inactive: 0.071.

Take ALOX12B (UniProt O75342): the log2 fold change was inactive: 0.187.

Take ALDH3A1 (UniProt P30838): the log2 fold change was inactive: 0.145.

On to ALG10B (UniProt Q5I7T1), for which the log2 fold change is inactive: 0.014.

For the target ANXA2 (UniProt H0YL33), the log2 fold change was inactive: -0.153.

ANXA6 (UniProt E5RK69): the log2 fold change is inactive: -0.008.

Consider ANKRD50 (UniProt Q9ULJ7), for which the log2 fold change was inactive: -0.542.

AP1S2 (UniProt H7BZG6): the log2 fold change was inactive: -0.096.

In the case of ALKBH7 (UniProt Q9BT30), the log2 fold change is active: 1.23.

Compound in a further assay: O=C(O)c1ccc2c(c1)nc(Nc1cccc(Cl)c1)c1ccncc12 [silmitasertib]
The assay is described as above. In short, it runs like this:
as §1
For the target ALDOA (UniProt H3BPS8), the log2 fold change is inactive: 0.077.

As to ANKS6 isoform 4 (UniProt Q68DC2), the log2 fold change is inactive: -0.031.

ALPK1 (UniProt Q96QP1): the log2 fold change was inactive: 0.076.

In the case of AKTIP isoform 2 (UniProt Q9H8T0), the log2 fold change is inactive: -0.18.

With ANKRD44 isoform 2 (UniProt Q8N8A2), the log2 fold change is inactive: 0.005.

Regarding AP3S2 (UniProt P59780), the log2 fold change was inactive: -0.065.

On to AP1S3 isoform 4 (UniProt Q96PC3), for which the log2 fold change was inactive: 0.116.

Turning to ANAPC15 isoform 2 (UniProt P60006), the log2 fold change was inactive: 0.008.

Regarding ANKHD1 isoform 2 (UniProt Q8IWZ3), the log2 fold change was inactive: -0.107.

In the case of ALG11 (UniProt Q2TAA5), the log2 fold change is inactive: -0.192.

Turning to ALG12 (UniProt Q9BV10), the log2 fold change is inactive: -0.089.

Turning to ANKHD1 (UniProt D6RHC4), the log2 fold change is inactive: -0.429.

Regarding ALOX12B (UniProt O75342), the log2 fold change was inactive: -0.052.

Take ALDH3A1 (UniProt P30838): the log2 fold change was inactive: -0.113.

As to ALG10B (UniProt Q5I7T1), the log2 fold change was inactive: -0.076.

With ANXA2 (UniProt H0YL33), the log2 fold change is inactive: 0.16.

For ANXA6 (UniProt E5RK69), the log2 fold change was inactive: -0.044.

In the case of ANKRD50 (UniProt Q9ULJ7), the log2 fold change was inactive: 0.034.

Turning to AP1S2 (UniProt H7BZG6), the log2 fold change was inactive: -0.159.

Take ALKBH7 (UniProt Q9BT30): the log2 fold change is inactive: -0.031.

Compound in a further assay: O=C1NC(=O)C(c2cnc3ccccn23)=C1c1cn2c3c(cc(F)cc13)CN(C(=O)N1CCCCC1)CC2
The assay is described as above. A digest of the protocol:
as §1
In the case of ANGEL1 (UniProt Q9UNK9), the log2 fold change is inactive: 0.035.

For AP1B1 isoform 3 (UniProt Q10567), the log2 fold change was inactive: -0.019.

Turning to ANKS6 isoform 4 (UniProt Q68DC2), the log2 fold change is inactive: 0.104.

With AMDHD2 (UniProt Q9Y303), the log2 fold change was inactive: 0.042.

For the target ANAPC15 isoform 2 (UniProt P60006), the log2 fold change is inactive: -0.012.

As to ANKRD31 (UniProt Q8N7Z5), the log2 fold change is inactive: -0.022.

Consider ALDH9A1 (UniProt P49189), for which the log2 fold change is inactive: 0.012.

For the target ANKRD16 (UniProt Q6P6B7), the log2 fold change is inactive: -0.071.

Regarding ANAPC11 (UniProt Q9NYG5), the log2 fold change is inactive: 0.136.

As for ANKHD1 isoform 2 (UniProt Q8IWZ3), the log2 fold change was inactive: -0.039.

With ALG11 (UniProt Q2TAA5), the log2 fold change is inactive: -0.101.

For AMOT (UniProt Q4VCS5), the log2 fold change is inactive: 0.003.

In the case of ALOX12B (UniProt O75342), the log2 fold change was inactive: 0.003.

In the case of ANKS3 (UniProt Q6ZW76), the log2 fold change is inactive: 0.016.

ALDH3A1 (UniProt P30838): the log2 fold change was inactive: 0.023.

Regarding ALG10B (UniProt Q5I7T1), the log2 fold change was inactive: -0.04.

As for ANXA2 (UniProt H0YL33), the log2 fold change is inactive: 0.042.

ALAS2 (UniProt P22557): the log2 fold change is inactive: -0.016.

As to ANXA6 (UniProt E5RK69), the log2 fold change is inactive: 0.037.

Turning to ANKRD30A (UniProt Q9BXX3), the log2 fold change is inactive: -0.011.

On to ANK2 (UniProt Q01484), for which the log2 fold change was inactive: 0.076.

Take ANKRD50 (UniProt Q9ULJ7): the log2 fold change is inactive: -0.022.

With ALDH18A1 isoform 2 (UniProt P54886), the log2 fold change was inactive: 0.204.

Take ANKRD39 (UniProt Q53RE8): the log2 fold change is inactive: 0.129.

On to ALKBH7 (UniProt Q9BT30), for which the log2 fold change was inactive: 0.079.
